Record: PubChem BioAssay AID1224830 (NIAID, 2016)

- Purpose: 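Regulators of TLR4 signalling towards TNF-alpha in macrophage-like cells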 (primary screen)
- Cell system: human THP-1 monocytic leukaemia cells, TNF dual-luciferase reporter clone, PMA-differentiated to macrophage-like cells
- Reagent: siRNA pool against human genes, 50 nM
- Timing: LPS for 4 h, given about 3 days after siRNA transfection
- Challenge: bacterial LPS (TLR4 ligand), 10 ng/ml
- Detection: 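Ratio of firefly to renilla light, scaled to the plate median and expressed as a robust z-score per replicate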
- Direction: TNF reporter robust z-score: higher = stronger TNF reporter response to LPS
- Call rule: 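a well is active when its z-score exceeds 2.8 or falls below -1.5; control wells carry no call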
Shown is an unselected part of about 18,000 reagents tested. Over the whole deposit, about 2,900 (16%) got an active call. 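Calls are made per well; low scores hint the gene aids the LPS response, high scores that it dampens it.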 Entries without a mark were called inactive. Repeated entries: four replicate wells of each siRNA pool. No sequences are given here.

The first 7 entries, to show the layout:
Target gene	TNF reporter robust z-score
DEFB118 (defensin beta 118)	-0.4
DEFB118 (defensin beta 118)	-1.23
DEFB118 (defensin beta 118)	-0.59
DEFB118 (defensin beta 118)	-0.12
ACTMAP (actin maturation protease)	0.33
ACTMAP (actin maturation protease)	-0.09
ACTMAP (actin maturation protease)	5.6 (active)

Results, from the first entry:
Target gene	TNF reporter robust z-score
DEFB118 (defensin beta 118)	-0.4
DEFB118 (defensin beta 118)	-1.23
DEFB118 (defensin beta 118)	-0.59
DEFB118 (defensin beta 118)	-0.12
ACTMAP (actin maturation protease)	0.33
ACTMAP (actin maturation protease)	-0.09
ACTMAP (actin maturation protease)	5.6 (active)
ACTMAP (actin maturation protease)	-0.27
TUBB3 (tubulin beta 3 class III)	-0.68
TUBB3 (tubulin beta 3 class III)	0.27
TUBB3 (tubulin beta 3 class III)	-0.23
TUBB3 (tubulin beta 3 class III)	0.1
CD164L2 (CD164 molecule like 2)	0.72
CD164L2 (CD164 molecule like 2)	0.86
CD164L2 (CD164 molecule like 2)	2.4
CD164L2 (CD164 molecule like 2)	2.88 (active)
NCKAP5 (NCK associated protein 5)	-0.94
NCKAP5 (NCK associated protein 5)	-0.28
NCKAP5 (NCK associated protein 5)	-0.48
NCKAP5 (NCK associated protein 5)	-0.03
OR8K5 (olfactory receptor family 8 subfamily K member 5)	0.1
OR8K5 (olfactory receptor family 8 subfamily K member 5)	0.41
OR8K5 (olfactory receptor family 8 subfamily K member 5)	0.71
OR8K5 (olfactory receptor family 8 subfamily K member 5)	-1.11
HOMER3 (homer scaffold protein 3)	-1.03
HOMER3 (homer scaffold protein 3)	0.22
HOMER3 (homer scaffold protein 3)	-0.43
HOMER3 (homer scaffold protein 3)	0.39
FGL1 (fibrinogen like 1)	2.62
FGL1 (fibrinogen like 1)	2.31
FGL1 (fibrinogen like 1)	2.22
FGL1 (fibrinogen like 1)	2.9 (active)
GOLGA7B (golgin A7 family member B)	-0.06
GOLGA7B (golgin A7 family member B)	0.79
GOLGA7B (golgin A7 family member B)	0.15
GOLGA7B (golgin A7 family member B)	0.07
FSTL1 (follistatin like 1)	-0.89
FSTL1 (follistatin like 1)	0.71
FSTL1 (follistatin like 1)	-0.1
FSTL1 (follistatin like 1)	-0.55
KIF20A (kinesin family member 20A)	0.25
KIF20A (kinesin family member 20A)	0.12
KIF20A (kinesin family member 20A)	0.67
HOXD4 (homeobox D4)	0.06
HOXD4 (homeobox D4)	-0.51
HOXD4 (homeobox D4)	-0.48
HOXD4 (homeobox D4)	1.23
ARHGAP30 (Rho GTPase activating protein 30)	-1.24
ARHGAP30 (Rho GTPase activating protein 30)	-0.81
ARHGAP30 (Rho GTPase activating protein 30)	-0.67
ARHGAP30 (Rho GTPase activating protein 30)	-0.68
ZNF664 (zinc finger protein 664)	0.25
ZNF664 (zinc finger protein 664)	1.65
ZNF664 (zinc finger protein 664)	0.53
ZNF664 (zinc finger protein 664)	1.04
ALKAL2 (ALK and LTK ligand 2)	0.46
ALKAL2 (ALK and LTK ligand 2)	-0.42
ALKAL2 (ALK and LTK ligand 2)	-0.38
ALKAL2 (ALK and LTK ligand 2)	0.57
ANXA11 (annexin A11)	-0.67
ANXA11 (annexin A11)	0.37
ANXA11 (annexin A11)	-0.18
ANXA11 (annexin A11)	0.41
OR6F1 (olfactory receptor family 6 subfamily F member 1)	-0.71
OR6F1 (olfactory receptor family 6 subfamily F member 1)	-0.47
OR6F1 (olfactory receptor family 6 subfamily F member 1)	-0.17
OR6F1 (olfactory receptor family 6 subfamily F member 1)	-0.58
APOD (apolipoprotein D)	-0.46
APOD (apolipoprotein D)	1.25
APOD (apolipoprotein D)	0.18
APOD (apolipoprotein D)	1.09
LIPF (lipase F, gastric type)	0.31
LIPF (lipase F, gastric type)	-0.27
LIPF (lipase F, gastric type)	-0.08
LIPF (lipase F, gastric type)	2.68
GPSM3 (G protein signaling modulator 3)	0.17
GPSM3 (G protein signaling modulator 3)	-0.96
GPSM3 (G protein signaling modulator 3)	-0.17
GPSM3 (G protein signaling modulator 3)	0.1
ZC3H13 (zinc finger CCCH-type containing 13)	0.48
ZC3H13 (zinc finger CCCH-type containing 13)	2.21
ZC3H13 (zinc finger CCCH-type containing 13)	1.58
ZC3H13 (zinc finger CCCH-type containing 13)	2.95 (active)
ZFP69 (ZFP69 zinc finger protein)	-1.2
ZFP69 (ZFP69 zinc finger protein)	-0.01
ZFP69 (ZFP69 zinc finger protein)	-1.34
ZFP69 (ZFP69 zinc finger protein)	0.09
AOC2 (amine oxidase copper containing 2)	-0.25
AOC2 (amine oxidase copper containing 2)	3.91 (active)
AOC2 (amine oxidase copper containing 2)	1.02
AOC2 (amine oxidase copper containing 2)	2.72
CLUH (CLUH binding protein of NUMT mRNA)	-1.33
CLUH (CLUH binding protein of NUMT mRNA)	1.6
CLUH (CLUH binding protein of NUMT mRNA)	0.63
CLUH (CLUH binding protein of NUMT mRNA)	-0.32
PPP1R35 (protein phosphatase 1 regulatory subunit 35)	1.61
PPP1R35 (protein phosphatase 1 regulatory subunit 35)	0.21
PPP1R35 (protein phosphatase 1 regulatory subunit 35)	-1.23
PPP1R35 (protein phosphatase 1 regulatory subunit 35)	-0.66
RPS23 (ribosomal protein S23)	0.76
RPS23 (ribosomal protein S23)	1.81
RPS23 (ribosomal protein S23)	0.79
RPS23 (ribosomal protein S23)	1.6
CDH1 (cadherin 1)	0.51
CDH1 (cadherin 1)	2.53
CDH1 (cadherin 1)	0.54
CDH1 (cadherin 1)	0.98
DZIP1 (DAZ interacting zinc finger protein 1)	1.32
DZIP1 (DAZ interacting zinc finger protein 1)	1.02
DZIP1 (DAZ interacting zinc finger protein 1)	0.45
DZIP1 (DAZ interacting zinc finger protein 1)	1.89
EIPR1 (EARP complex and GARP complex interacting protein 1)	-0.59
EIPR1 (EARP complex and GARP complex interacting protein 1)	-0.75
EIPR1 (EARP complex and GARP complex interacting protein 1)	-0.14
EIPR1 (EARP complex and GARP complex interacting protein 1)	-0.07
EWSR1 (EWS RNA binding protein 1)	0.08
EWSR1 (EWS RNA binding protein 1)	0.66
EWSR1 (EWS RNA binding protein 1)	0.09
EWSR1 (EWS RNA binding protein 1)	1.44
ZNF430 (zinc finger protein 430)	0.22
ZNF430 (zinc finger protein 430)	0.46
ZNF430 (zinc finger protein 430)	-0.1
ZNF430 (zinc finger protein 430)	1.51
TRIM75 (tripartite motif containing 75)	0.35
TRIM75 (tripartite motif containing 75)	0.71
TRIM75 (tripartite motif containing 75)	0.2
TRIM75 (tripartite motif containing 75)	1.01
PSMG1 (proteasome assembly chaperone 1)	-0.36
PSMG1 (proteasome assembly chaperone 1)	0.14
PSMG1 (proteasome assembly chaperone 1)	-0.84
PSMG1 (proteasome assembly chaperone 1)	-0.46
ZNF561 (zinc finger protein 561)	-1.29
ZNF561 (zinc finger protein 561)	-1.25
ZNF561 (zinc finger protein 561)	-1.94 (active)
ZNF561 (zinc finger protein 561)	-0.95
FAM24A (family with sequence similarity 24 member A)	-0.85
FAM24A (family with sequence similarity 24 member A)	0.27
FAM24A (family with sequence similarity 24 member A)	-0.02
FAM24A (family with sequence similarity 24 member A)	0.5
TRIM27 (tripartite motif containing 27)	-0.8
TRIM27 (tripartite motif containing 27)	-0.75
TRIM27 (tripartite motif containing 27)	-0.67
TRIM27 (tripartite motif containing 27)	-0.91
